# Assay results from the supplement of paper PMC10849652.
# Protein sequences, listed by entry. Tags and fused reporters are not part of them. Lines headed by an entry give the natural chain unless they say otherwise; changes in a name come on top.
# UniProt P25311: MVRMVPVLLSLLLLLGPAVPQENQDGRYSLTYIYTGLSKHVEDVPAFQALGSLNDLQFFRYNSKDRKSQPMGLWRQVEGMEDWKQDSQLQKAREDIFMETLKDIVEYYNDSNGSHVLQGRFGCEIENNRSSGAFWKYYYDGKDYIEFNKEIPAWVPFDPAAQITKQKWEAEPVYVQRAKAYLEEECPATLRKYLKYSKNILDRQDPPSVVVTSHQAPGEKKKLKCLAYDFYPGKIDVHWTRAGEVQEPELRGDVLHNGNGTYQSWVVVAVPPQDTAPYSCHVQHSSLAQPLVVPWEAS
# UniProt Q86UU0: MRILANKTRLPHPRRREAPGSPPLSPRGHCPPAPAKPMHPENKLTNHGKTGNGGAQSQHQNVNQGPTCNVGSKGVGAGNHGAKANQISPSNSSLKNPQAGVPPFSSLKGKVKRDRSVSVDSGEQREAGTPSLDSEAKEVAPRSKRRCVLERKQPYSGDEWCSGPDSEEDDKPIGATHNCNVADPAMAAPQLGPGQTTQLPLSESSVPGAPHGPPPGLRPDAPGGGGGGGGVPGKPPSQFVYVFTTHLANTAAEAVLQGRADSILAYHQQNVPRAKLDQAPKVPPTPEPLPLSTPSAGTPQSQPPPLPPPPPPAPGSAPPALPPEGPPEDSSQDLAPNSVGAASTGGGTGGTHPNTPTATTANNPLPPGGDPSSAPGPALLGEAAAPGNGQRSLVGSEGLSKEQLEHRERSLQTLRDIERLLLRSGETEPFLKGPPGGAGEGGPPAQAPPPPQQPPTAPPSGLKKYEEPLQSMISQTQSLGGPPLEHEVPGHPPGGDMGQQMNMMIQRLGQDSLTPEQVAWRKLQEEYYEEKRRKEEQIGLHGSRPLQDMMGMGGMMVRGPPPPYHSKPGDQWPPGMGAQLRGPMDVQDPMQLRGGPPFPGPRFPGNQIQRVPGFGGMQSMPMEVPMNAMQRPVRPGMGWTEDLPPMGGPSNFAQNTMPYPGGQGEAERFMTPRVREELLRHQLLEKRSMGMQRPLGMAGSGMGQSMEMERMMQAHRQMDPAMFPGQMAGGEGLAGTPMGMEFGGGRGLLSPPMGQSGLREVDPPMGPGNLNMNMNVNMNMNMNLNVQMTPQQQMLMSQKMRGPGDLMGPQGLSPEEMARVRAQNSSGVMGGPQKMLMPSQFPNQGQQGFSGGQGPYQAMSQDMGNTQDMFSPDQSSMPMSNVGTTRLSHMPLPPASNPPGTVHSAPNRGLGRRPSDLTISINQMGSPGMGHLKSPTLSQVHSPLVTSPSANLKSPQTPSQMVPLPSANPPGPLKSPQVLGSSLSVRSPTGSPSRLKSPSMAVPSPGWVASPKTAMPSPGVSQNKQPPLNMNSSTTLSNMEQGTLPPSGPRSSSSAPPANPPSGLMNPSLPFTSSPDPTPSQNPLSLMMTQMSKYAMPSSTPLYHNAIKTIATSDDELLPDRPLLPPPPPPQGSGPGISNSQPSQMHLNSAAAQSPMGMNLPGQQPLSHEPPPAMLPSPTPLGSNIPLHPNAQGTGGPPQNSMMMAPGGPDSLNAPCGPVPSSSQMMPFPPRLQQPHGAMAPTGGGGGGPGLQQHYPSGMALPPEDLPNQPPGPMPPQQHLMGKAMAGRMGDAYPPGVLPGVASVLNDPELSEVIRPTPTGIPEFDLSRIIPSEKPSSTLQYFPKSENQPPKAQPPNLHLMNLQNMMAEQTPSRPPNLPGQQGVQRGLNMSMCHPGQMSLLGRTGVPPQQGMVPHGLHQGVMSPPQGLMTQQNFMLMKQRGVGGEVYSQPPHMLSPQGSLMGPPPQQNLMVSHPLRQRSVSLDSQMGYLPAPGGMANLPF
# UniProt Q92934: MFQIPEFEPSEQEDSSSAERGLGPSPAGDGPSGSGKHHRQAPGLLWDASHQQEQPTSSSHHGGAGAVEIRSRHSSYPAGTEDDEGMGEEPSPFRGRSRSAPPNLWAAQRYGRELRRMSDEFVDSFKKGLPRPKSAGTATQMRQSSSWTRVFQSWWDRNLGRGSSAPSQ
# UniProt O43505: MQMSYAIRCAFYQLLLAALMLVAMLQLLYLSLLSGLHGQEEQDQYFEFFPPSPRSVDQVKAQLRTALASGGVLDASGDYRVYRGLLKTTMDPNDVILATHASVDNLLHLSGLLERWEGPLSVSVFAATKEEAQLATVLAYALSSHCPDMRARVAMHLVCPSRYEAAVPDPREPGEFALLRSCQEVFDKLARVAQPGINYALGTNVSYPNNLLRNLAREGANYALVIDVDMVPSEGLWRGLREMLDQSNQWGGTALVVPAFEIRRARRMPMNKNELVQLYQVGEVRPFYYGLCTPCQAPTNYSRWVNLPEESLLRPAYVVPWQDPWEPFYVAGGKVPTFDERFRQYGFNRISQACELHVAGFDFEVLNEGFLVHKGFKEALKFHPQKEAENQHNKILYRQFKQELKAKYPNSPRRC
# UniProt Q9UHQ4: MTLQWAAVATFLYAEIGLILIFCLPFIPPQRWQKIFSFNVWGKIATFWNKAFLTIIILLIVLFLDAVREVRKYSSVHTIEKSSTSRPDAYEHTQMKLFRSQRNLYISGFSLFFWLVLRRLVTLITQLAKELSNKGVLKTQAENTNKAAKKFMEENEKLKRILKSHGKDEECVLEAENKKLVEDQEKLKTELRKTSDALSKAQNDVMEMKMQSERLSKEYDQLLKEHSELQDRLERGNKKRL
# UniProt Q9HB09: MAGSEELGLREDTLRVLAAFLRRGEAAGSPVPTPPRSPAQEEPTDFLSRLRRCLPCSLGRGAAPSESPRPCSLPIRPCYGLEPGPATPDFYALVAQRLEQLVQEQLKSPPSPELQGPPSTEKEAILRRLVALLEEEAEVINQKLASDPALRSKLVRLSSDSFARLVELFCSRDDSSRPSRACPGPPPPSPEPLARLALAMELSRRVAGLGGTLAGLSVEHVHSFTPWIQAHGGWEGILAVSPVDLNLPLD
# UniProt O75531: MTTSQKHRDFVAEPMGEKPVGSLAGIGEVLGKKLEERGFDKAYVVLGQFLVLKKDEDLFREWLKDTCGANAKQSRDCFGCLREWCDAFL
# UniProt Q9P281: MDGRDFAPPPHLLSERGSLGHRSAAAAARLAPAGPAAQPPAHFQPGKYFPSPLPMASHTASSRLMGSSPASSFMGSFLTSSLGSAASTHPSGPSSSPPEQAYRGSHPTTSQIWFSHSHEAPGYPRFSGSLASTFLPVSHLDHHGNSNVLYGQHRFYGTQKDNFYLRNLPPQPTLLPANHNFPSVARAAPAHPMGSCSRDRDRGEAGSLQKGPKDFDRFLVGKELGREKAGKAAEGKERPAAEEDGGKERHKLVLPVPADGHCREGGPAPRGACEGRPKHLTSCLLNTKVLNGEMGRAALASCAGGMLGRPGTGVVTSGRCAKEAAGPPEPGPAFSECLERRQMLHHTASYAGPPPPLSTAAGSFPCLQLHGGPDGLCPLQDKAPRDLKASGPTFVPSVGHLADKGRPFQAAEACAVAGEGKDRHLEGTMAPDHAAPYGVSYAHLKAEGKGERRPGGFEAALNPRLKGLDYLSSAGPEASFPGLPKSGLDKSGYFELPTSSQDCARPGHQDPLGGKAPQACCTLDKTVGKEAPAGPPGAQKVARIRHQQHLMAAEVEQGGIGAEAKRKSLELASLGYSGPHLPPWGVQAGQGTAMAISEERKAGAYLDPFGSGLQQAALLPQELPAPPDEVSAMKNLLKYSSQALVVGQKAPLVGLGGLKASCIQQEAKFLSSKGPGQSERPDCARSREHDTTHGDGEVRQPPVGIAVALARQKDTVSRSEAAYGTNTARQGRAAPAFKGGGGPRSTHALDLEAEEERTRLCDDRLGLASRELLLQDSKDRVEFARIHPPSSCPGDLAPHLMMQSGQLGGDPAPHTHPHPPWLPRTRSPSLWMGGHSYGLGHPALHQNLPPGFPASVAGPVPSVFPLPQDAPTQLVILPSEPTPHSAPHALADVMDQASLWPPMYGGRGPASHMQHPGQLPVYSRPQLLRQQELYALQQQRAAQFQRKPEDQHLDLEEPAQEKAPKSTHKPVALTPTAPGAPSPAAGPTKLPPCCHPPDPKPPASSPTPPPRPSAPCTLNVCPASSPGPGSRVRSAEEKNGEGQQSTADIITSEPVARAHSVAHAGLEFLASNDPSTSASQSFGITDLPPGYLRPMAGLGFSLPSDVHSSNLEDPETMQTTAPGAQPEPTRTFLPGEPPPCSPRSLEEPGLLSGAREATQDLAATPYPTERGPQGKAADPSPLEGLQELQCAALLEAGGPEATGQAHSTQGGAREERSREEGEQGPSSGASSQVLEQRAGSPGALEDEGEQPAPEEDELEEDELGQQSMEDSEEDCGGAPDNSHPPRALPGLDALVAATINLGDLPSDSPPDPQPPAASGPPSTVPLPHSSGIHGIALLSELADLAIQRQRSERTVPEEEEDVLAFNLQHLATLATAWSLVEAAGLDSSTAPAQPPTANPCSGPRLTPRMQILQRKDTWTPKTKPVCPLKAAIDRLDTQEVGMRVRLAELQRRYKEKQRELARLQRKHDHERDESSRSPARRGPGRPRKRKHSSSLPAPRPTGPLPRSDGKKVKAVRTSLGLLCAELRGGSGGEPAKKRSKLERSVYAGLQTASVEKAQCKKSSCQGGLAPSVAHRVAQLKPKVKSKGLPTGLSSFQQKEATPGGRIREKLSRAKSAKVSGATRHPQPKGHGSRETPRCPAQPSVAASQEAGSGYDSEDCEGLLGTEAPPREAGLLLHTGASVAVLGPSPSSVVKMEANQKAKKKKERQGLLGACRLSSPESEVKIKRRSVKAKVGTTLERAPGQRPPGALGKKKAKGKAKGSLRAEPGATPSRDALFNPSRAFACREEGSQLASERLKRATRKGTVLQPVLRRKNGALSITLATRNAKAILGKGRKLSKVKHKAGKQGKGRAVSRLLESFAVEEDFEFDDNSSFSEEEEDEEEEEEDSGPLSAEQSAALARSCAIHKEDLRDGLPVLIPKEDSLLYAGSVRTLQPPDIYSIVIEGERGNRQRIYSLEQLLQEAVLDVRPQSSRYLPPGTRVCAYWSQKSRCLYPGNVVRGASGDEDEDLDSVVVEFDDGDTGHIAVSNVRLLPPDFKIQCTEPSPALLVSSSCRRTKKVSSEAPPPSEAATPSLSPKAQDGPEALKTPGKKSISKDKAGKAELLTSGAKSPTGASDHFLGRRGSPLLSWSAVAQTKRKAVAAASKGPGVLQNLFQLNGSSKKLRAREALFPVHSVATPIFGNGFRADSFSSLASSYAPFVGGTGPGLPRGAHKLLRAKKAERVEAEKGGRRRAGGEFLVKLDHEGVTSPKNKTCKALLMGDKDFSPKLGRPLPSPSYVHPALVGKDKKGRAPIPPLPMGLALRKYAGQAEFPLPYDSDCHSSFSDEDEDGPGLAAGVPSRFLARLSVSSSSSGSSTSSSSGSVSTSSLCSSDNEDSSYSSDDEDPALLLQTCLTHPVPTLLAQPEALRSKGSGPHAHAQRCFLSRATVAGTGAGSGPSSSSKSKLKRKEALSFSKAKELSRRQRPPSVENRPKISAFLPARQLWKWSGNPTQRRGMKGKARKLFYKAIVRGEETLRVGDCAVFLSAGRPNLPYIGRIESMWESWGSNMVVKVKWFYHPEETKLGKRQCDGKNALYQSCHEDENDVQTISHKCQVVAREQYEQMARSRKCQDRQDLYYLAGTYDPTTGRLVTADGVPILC
# UniProt Q8WY22: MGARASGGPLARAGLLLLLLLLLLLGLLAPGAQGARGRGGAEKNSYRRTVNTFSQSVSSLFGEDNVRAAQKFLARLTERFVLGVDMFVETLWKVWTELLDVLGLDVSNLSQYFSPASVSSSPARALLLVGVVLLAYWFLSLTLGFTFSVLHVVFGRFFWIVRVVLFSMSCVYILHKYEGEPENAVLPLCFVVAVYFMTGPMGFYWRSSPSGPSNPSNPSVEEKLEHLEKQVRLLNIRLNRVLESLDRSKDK
# UniProt O14867: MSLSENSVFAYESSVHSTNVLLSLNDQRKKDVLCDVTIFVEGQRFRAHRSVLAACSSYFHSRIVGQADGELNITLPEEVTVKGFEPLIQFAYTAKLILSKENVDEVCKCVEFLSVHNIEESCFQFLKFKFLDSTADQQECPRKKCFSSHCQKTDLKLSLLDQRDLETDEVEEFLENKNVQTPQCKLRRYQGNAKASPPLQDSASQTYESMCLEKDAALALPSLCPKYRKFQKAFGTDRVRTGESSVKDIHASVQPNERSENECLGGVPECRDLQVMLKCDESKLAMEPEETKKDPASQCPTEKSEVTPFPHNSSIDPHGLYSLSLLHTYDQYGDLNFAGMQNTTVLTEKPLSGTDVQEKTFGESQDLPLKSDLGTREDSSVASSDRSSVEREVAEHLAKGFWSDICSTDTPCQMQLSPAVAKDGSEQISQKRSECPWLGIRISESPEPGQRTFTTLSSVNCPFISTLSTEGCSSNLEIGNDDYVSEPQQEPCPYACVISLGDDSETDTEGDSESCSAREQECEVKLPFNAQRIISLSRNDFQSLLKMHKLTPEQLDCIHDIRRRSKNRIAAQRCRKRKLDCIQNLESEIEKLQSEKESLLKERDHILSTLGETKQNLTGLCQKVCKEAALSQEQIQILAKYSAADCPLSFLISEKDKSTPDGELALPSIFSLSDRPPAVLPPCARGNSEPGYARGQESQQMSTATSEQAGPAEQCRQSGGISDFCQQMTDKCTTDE
# The list shows a part of the results.
# Key:
# Test in all cases: log2 fold change, soluble protein after heating vs DMSO (PISA); higher = thermal stabilisation; K562 cells, 10 uM, 30 min; active = over 0.2 and 3.5 SD of the protein, either way, in both replicates (recomputed)
# [1] = compound: C#Cc1cccc(Nc2ncnc3cc(OCCOC)c(OCCOC)cc23)c1 [erlotinib]
# In short: (§1)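 K562 cells at 2×10^6 cells/mL were exposed to 10 μM compound for 30 min, then aliquots were heated for 3 min across 48°C-58°C, pooled, and extracted in PBS containing 0.5% NP-40 at 4°C. The supernatant after 21,000xg for 90 min was taken as soluble protein and measured by TMTpro 16plex LC-MS/MS with channel sums equalised. Thermal stability is reported relative to control samples, with values from duplicates. Fold changes are given on a log2 scale.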
# [2] = compound: C/C(=N\NC(=O)C1=CC(=CC=C1)S(=O)(=O)N2CCOCC2)/C3=C(C=CC(=C3)Cl)O
# In short: as §1
# [3] = compound: C1=CC(=C(C=C1Cl)C2=NC3=NC=CN=C3C(=N2)NC4=CC=NC=C4)F
# In short: as §1
# [4] = compound: C1=CC(=CC=C1C2=NC3=C(N2)C=C(C=C3)C(=O)N)OC4=CC=C(C=C4)Cl
# In short: as §1
# [5] = compound: C1=CC2=C(C=CC(=C2)/C=C\3/C(=O)NC(=NCC4=CC=CS4)S3)N=C1
# In short: as §1
# [6] = compound: C1=CC2=NC=CN=C2C=C1/C=C/3\C(=O)NC(=O)S3
# In short: as §1
# [7] = compound: C1=CC=C(C=C1)C2=NC(=C(N2)C3=CC=NC=C3)C4=CC(=C(C=C4)Cl)O
# In short: as §1
# [8] = compound: C1=CC=C2C(=C1)C3=NNC4=CC=CC(=C43)C2=O
# In short: as §1
# [9] = compound: C1CCN(C1)C(=O)NC2=CC=CC(=C2)NC3=NC=C(C(=N3)NCCC4=CN=CN4)Br
# In short: as §1
# [10] = compound: C1CN(CCC1(CC2=CC=C(C=C2)Cl)N)C3=NC=NC4=C3C=CN4
# In short: as §1
Target,log2 fold change [1],log2 fold change [2],log2 fold change [3],log2 fold change [4],log2 fold change [5],log2 fold change [6],log2 fold change [7],log2 fold change [8],log2 fold change [9],log2 fold change [10]
AZGP1 (UniProt P25311),inactive: 0.423,inactive: -0.118,inactive: -0.063,inactive: -0.46,inactive: 0.149,inactive: -0.368,inactive: 0.14,inactive: -0.612,inactive: -0.379,inactive: -0.554
BAIAP2L1 (UniProt Q9UHR4),inactive: -0.018,inactive: 0.023,inactive: 0.02,inactive: 0.051,inactive: 0.009,inactive: 0.018,inactive: -0.058,inactive: -0.025,inactive: -0.02,inactive: 0.005
BRAP (UniProt Q7Z569),inactive: 0.114,inactive: 0.09,inactive: 0.022,inactive: 0.012,inactive: 0.001,inactive: 0.032,inactive: 0.172,inactive: -0.023,inactive: -0.07,inactive: -0.059
BCAS1 (UniProt O75363),inactive: 0.027,inactive: -0.057,inactive: -0.112,inactive: 0.016,inactive: -0.064,inactive: -0.123,inactive: -0.048,inactive: -0.003,inactive: 0.053,inactive: -0.038
BCL9L (UniProt Q86UU0),inactive: 0.01,inactive: -0.256,inactive: -0.008,inactive: 0.049,inactive: 0.036,inactive: -0.048,inactive: -0.128,inactive: 0.07,inactive: -0.052,inactive: 0.091
BICD2 isoform 2 (UniProt Q8TD16),inactive: 0.047,inactive: 0.05,inactive: 0.048,inactive: -0.007,inactive: 0.129,inactive: -0.001,inactive: 0.034,inactive: 0.007,inactive: -0.013,inactive: -0.075
BCAT1 (UniProt P54687),inactive: 0.019,inactive: -0.013,inactive: 0.068,inactive: -0.001,inactive: 0.009,inactive: -0.007,inactive: -0.012,inactive: -0.012,inactive: -0.021,inactive: 0.022
BAG3 (UniProt O95817),inactive: 0.012,inactive: -0.024,inactive: 0.006,inactive: -0.01,inactive: 0.025,inactive: -0.008,inactive: -0.003,inactive: -0.044,inactive: 0.032,inactive: 0.031
BAG5 isoform 2 (UniProt Q9UL15),inactive: -0.009,inactive: 0.105,inactive: 0.031,inactive: -0.115,inactive: 0.079,inactive: 0.051,inactive: 0.098,inactive: 0.015,inactive: 0.004,inactive: -0.056
BAD (UniProt Q92934),inactive: 0.049,inactive: 0.079,inactive: 0.022,inactive: 0.124,inactive: 0.083,inactive: 0.023,inactive: 0.01,inactive: 0.025,,
B4GAT1 (UniProt O43505),inactive: -0.037,inactive: 0.244,inactive: -0.035,inactive: 0.049,inactive: 0.18,inactive: -0.097,inactive: -0.012,inactive: -0.147,inactive: 0.105,inactive: 0.016
BRCC3 (UniProt P46736),inactive: 0.01,inactive: -0.041,inactive: -0.011,inactive: -0.005,inactive: 0.025,inactive: 0.025,inactive: 0.006,inactive: -0.016,inactive: -0.009,inactive: 0.049
BCAP29 isoform 2 (UniProt Q9UHQ4),inactive: -0.02,inactive: 0.002,inactive: 0.077,inactive: 0.062,inactive: -0.026,inactive: 0.086,inactive: -0.034,inactive: 0.038,inactive: 0.062,inactive: -0.022
BCL2L12 (UniProt Q9HB09),inactive: -0.041,inactive: 0.128,inactive: 0.087,inactive: 0.08,inactive: 0.014,inactive: -0.219,inactive: 0.018,inactive: -0.098,,
BANF1 (UniProt O75531),inactive: -0.018,inactive: -0.018,inactive: 0.187,inactive: 0.029,inactive: 0.187,inactive: 0.059,inactive: 0.073,inactive: -0.119,inactive: -0.036,inactive: -0.117
BLOC1S2 (UniProt Q6QNY1),inactive: 0,inactive: -0.06,inactive: 0.045,inactive: 0.001,inactive: 0.177,inactive: 0.052,inactive: 0.01,inactive: -0.036,inactive: -0.189,inactive: 0.181
BRK1 isoform 2 (UniProt Q8WUW1),inactive: -0.115,inactive: 0.003,inactive: 0.279,inactive: 0.04,inactive: 0.027,inactive: 0.072,inactive: 0.051,inactive: -0.02,inactive: -0.08,inactive: -0.037
ATXN2L (UniProt Q8WWM7),inactive: -0.003,inactive: 0.018,inactive: -0.035,inactive: 0.021,inactive: -0.029,inactive: -0.001,inactive: -0.011,inactive: -0.023,inactive: -0.002,inactive: 0.023
B4GALT1 (UniProt P15291),inactive: -0.095,inactive: 0.07,inactive: -0.018,inactive: 0.047,inactive: -0.033,inactive: 0.07,inactive: -0.035,inactive: 0.024,inactive: -0.078,inactive: 0.017
BRAT1 (UniProt Q6PJG6),inactive: 0.024,inactive: 0.012,inactive: 0.007,inactive: 0.015,inactive: -0.007,inactive: -0.031,inactive: 0.028,inactive: 0.081,inactive: -0.026,inactive: 0.048
BNIP1 (UniProt Q12981),inactive: -0.003,inactive: 0.009,inactive: 0.025,inactive: 0.015,inactive: 0.033,inactive: 0.012,inactive: 0.009,inactive: -0.033,inactive: -0.016,inactive: -0.006
BPHL (UniProt Q86WA6),inactive: -0.016,inactive: 0.053,inactive: 0.057,inactive: -0.016,inactive: 0.142,inactive: 0.058,inactive: -0.028,inactive: 0.02,active: -0.38,inactive: 0.182
ATR (UniProt Q13535),inactive: 0.014,inactive: -0.011,inactive: -0.039,inactive: 0.018,inactive: 0.02,inactive: 0.02,inactive: -0.017,inactive: 0.086,inactive: -0.029,inactive: 0.046
BMP2K (UniProt Q9NSY1),inactive: 0.079,inactive: -0.16,inactive: -0.016,inactive: -0.024,inactive: 0.178,inactive: -0.042,inactive: -0.012,active: 0.388,inactive: 0.353,inactive: -0.061
BCKDHA (UniProt P12694),inactive: 0.003,inactive: -0.022,inactive: -0.045,inactive: 0.043,inactive: 0.078,inactive: -0.021,inactive: 0.008,inactive: 0.047,inactive: 0.024,inactive: 0.007
BAHCC1 (UniProt Q9P281),inactive: 0.474,inactive: -0.293,inactive: -0.029,inactive: -0.107,inactive: 0.337,inactive: 0.101,inactive: -0.265,inactive: -0.035,inactive: 0.284,inactive: -0.019
BRI3BP (UniProt Q8WY22),inactive: 0.069,inactive: 0.125,inactive: -0.103,inactive: 0.06,inactive: 0.01,inactive: 0.02,inactive: 0.039,inactive: -0.082,inactive: -0.162,inactive: 0.054
BOLA3 (UniProt Q53S33),inactive: -0.001,inactive: -0.028,inactive: 0.041,inactive: 0.017,inactive: 0.002,inactive: 0.015,inactive: -0.022,inactive: 0.025,inactive: 0.028,inactive: 0.02
BACH1 (UniProt O14867),inactive: -0.045,inactive: -0.027,inactive: -0.057,inactive: 0.01,inactive: 0.03,inactive: 0.049,inactive: -0.048,inactive: -0.052,inactive: -0.019,inactive: -0.024
BID isoform 2 (UniProt P55957),inactive: 0.026,inactive: 0.006,inactive: 0.014,inactive: 0.052,inactive: -0.04,inactive: 0.012,inactive: -0.03,inactive: 0.028,inactive: -0.05,inactive: 0.034

# As entered above.
# log2 fold change [8], BAD (UniProt Q92934) reads inactive: 0.025
# log2 fold change [1], BCL2L12 (UniProt Q9HB09) reads inactive: -0.041

# Single records, as listed above. Values in the order: log2 fold change [1]	log2 fold change [2]	log2 fold change [3]	log2 fold change [4]	log2 fold change [5]	log2 fold change [6]	log2 fold change [7]	log2 fold change [8]	log2 fold change [9]	log2 fold change [10]
# BICD2 isoform 2 (UniProt Q8TD16) is listed as inactive: 0.047	inactive: 0.05	inactive: 0.048	inactive: -0.007	inactive: 0.129	inactive: -0.001	inactive: 0.034	inactive: 0.007	inactive: -0.013	inactive: -0.075
# BCKDHA (UniProt P12694) is listed as inactive: 0.003	inactive: -0.022	inactive: -0.045	inactive: 0.043	inactive: 0.078	inactive: -0.021	inactive: 0.008	inactive: 0.047	inactive: 0.024	inactive: 0.007
